The target in the experiment is T1, Flag-tagged HY5 (Arabidopsis) (UniProt O24646).
T1 sequence: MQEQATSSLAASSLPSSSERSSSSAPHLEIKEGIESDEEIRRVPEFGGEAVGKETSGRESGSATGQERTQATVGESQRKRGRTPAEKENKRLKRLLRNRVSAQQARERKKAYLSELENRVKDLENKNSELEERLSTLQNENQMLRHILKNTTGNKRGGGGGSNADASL
The experiment can be described thus: co-IP.

By UniProt entry, the sequences of proteins in these tests, tags left out.
UniProt Q9LET0: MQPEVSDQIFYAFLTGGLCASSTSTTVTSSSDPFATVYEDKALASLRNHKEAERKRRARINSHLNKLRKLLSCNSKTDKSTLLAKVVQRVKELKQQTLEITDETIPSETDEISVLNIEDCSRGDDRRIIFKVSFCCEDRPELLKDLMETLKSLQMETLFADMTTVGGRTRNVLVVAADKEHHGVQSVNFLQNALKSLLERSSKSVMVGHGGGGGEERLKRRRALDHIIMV

These are yes or no findings as the source states them, for the method shown. Binding seen in cells or lysates may run through a third protein. Some entries that bind do so weakly or less than the wild type. Sequences can lack the tags named with a protein.

The source of these data is doi:10.1101/2024.09.27.615457 (bioRxiv, 2024).

For the substance “HA-tagged bHLH107 (expressed in N. benthamiana) (from UniProt Q9LET0 1-230)”, the binding entry is “binds”.
